Laboratory results taken from PMC4357705, “Human Rap1 modulates TRF2 attraction to telomeric DNA”.
These are yes or no findings as the source states them, for the method shown. Some binding calls cover weakened binding; strength is not graded here. For some assays here: Tags and fused reporters may be left off the sequences shown.

How the values were obtained:
[1] = target: T1, Repressor activator protein 1 (Rap1), human, full-length recombinant with N-terminal His6-tag (human), Q9NYB0; experiment: electrophoresis at mild denaturing conditions; data not shown; multimer distribution of bacterially produced proteins compared with proteins expressed in insect cells; conditions: remark: other sources report otherwise
T1 chain: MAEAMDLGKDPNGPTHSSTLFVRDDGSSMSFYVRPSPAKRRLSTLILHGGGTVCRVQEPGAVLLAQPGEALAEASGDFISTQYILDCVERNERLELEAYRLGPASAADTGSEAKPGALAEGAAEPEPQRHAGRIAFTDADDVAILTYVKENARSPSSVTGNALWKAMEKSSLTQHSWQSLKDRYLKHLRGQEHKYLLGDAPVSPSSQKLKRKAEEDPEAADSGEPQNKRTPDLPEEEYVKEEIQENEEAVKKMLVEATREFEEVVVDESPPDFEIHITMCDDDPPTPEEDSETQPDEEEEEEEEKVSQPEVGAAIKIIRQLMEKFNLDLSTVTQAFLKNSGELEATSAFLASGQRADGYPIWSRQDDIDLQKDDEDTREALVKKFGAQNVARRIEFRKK

[2] = target: T2, Rap1 expressed in insect cells (human), Q9NYB0; experiment: as above; conditions: remark: other sources report otherwise
T2 chain: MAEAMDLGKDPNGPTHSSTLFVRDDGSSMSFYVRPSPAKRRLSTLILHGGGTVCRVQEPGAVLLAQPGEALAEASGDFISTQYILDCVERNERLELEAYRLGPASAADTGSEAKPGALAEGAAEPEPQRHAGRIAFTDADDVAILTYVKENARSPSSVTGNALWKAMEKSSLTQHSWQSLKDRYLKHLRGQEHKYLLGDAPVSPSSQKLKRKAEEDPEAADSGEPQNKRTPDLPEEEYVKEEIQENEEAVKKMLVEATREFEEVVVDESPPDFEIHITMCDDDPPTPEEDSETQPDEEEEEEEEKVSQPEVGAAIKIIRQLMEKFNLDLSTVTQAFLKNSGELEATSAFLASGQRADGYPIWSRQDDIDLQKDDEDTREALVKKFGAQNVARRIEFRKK

[3] = target: Telomeric Repeat binding Factor 2 (TRF2), human, full-length recombinant with N-terminal His6-tag (human) (UniProt Q15554); experiment: SPR; Rap1 allowed to bind to immobilized TRF2; ProteOn (BioRad), GLC and NLC sensor chips, PBST; detailed conditions in Supplementary Data; both purified
[4] = target: T3, Telomeric Repeat binding Factor 2 (TRF2), human, full-length recombinant with N-terminal His6-tag (human), Q15554; experiment: electrophoresis at mild denaturing conditions; data not shown; multimer distribution of bacterially produced proteins compared with proteins expressed in insect cells; conditions: remark: other sources report otherwise
T3 chain: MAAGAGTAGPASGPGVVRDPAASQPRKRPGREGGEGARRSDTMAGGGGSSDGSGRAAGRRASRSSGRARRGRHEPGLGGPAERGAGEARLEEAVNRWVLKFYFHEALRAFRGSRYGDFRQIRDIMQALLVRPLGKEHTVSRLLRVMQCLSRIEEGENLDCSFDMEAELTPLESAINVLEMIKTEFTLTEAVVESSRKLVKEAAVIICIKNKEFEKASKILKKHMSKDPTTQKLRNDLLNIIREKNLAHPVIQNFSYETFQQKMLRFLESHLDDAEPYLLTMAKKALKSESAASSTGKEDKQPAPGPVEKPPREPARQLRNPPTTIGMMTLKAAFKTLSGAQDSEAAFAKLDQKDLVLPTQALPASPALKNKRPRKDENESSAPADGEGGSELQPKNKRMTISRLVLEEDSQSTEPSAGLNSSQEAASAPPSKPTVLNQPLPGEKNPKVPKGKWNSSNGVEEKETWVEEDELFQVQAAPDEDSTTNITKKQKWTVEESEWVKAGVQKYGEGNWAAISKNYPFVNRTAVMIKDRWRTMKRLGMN

[5] = target: T4, TRF2 produced in insect cells (human), Q15554; experiment: as above; conditions: remark: other sources report otherwise
T4 chain: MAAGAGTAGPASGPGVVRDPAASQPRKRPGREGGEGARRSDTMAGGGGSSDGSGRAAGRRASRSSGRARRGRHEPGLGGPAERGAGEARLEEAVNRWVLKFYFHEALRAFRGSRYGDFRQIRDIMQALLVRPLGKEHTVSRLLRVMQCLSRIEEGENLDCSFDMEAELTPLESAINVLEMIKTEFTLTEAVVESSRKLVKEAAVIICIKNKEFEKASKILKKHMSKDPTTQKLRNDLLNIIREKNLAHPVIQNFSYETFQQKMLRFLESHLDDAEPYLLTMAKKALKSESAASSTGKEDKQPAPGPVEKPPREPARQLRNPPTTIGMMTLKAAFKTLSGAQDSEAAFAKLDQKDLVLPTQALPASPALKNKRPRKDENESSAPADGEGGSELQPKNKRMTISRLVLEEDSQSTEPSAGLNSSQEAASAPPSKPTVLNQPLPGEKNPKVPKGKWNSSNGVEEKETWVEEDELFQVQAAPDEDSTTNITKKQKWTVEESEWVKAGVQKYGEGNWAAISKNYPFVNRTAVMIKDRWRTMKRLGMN

B1: Repressor activator protein 1 (Rap1), human, full-length recombinant with N-terminal His6-tag, Q9NYB0 1-399 (protein)
chain: MAEAMDLGKDPNGPTHSSTLFVRDDGSSMSFYVRPSPAKRRLSTLILHGGGTVCRVQEPGAVLLAQPGEALAEASGDFISTQYILDCVERNERLELEAYRLGPASAADTGSEAKPGALAEGAAEPEPQRHAGRIAFTDADDVAILTYVKENARSPSSVTGNALWKAMEKSSLTQHSWQSLKDRYLKHLRGQEHKYLLGDAPVSPSSQKLKRKAEEDPEAADSGEPQNKRTPDLPEEEYVKEEIQENEEAVKKMLVEATREFEEVVVDESPPDFEIHITMCDDDPPTPEEDSETQPDEEEEEEEEKVSQPEVGAAIKIIRQLMEKFNLDLSTVTQAFLKNSGELEATSAFLASGQRADGYPIWSRQDDIDLQKDDEDTREALVKKFGAQNVARRIEFRKK
B1 was tested, and the binding [1] was “binds”.

B2: Rap1 expressed in insect cells, Q9NYB0 1-399 (protein)
chain: MAEAMDLGKDPNGPTHSSTLFVRDDGSSMSFYVRPSPAKRRLSTLILHGGGTVCRVQEPGAVLLAQPGEALAEASGDFISTQYILDCVERNERLELEAYRLGPASAADTGSEAKPGALAEGAAEPEPQRHAGRIAFTDADDVAILTYVKENARSPSSVTGNALWKAMEKSSLTQHSWQSLKDRYLKHLRGQEHKYLLGDAPVSPSSQKLKRKAEEDPEAADSGEPQNKRTPDLPEEEYVKEEIQENEEAVKKMLVEATREFEEVVVDESPPDFEIHITMCDDDPPTPEEDSETQPDEEEEEEEEKVSQPEVGAAIKIIRQLMEKFNLDLSTVTQAFLKNSGELEATSAFLASGQRADGYPIWSRQDDIDLQKDDEDTREALVKKFGAQNVARRIEFRKK
In the case of B2, the binding [2] is reported as “binds”.

B3: Repressor activator protein 1 (Rap1), human, full-length recombinant with N-terminal His6-tag (protein, UniProt Q9NYB0 1-399)
chain: MAEAMDLGKDPNGPTHSSTLFVRDDGSSMSFYVRPSPAKRRLSTLILHGGGTVCRVQEPGAVLLAQPGEALAEASGDFISTQYILDCVERNERLELEAYRLGPASAADTGSEAKPGALAEGAAEPEPQRHAGRIAFTDADDVAILTYVKENARSPSSVTGNALWKAMEKSSLTQHSWQSLKDRYLKHLRGQEHKYLLGDAPVSPSSQKLKRKAEEDPEAADSGEPQNKRTPDLPEEEYVKEEIQENEEAVKKMLVEATREFEEVVVDESPPDFEIHITMCDDDPPTPEEDSETQPDEEEEEEEEKVSQPEVGAAIKIIRQLMEKFNLDLSTVTQAFLKNSGELEATSAFLASGQRADGYPIWSRQDDIDLQKDDEDTREALVKKFGAQNVARRIEFRKK
B3 was tested, and the binding [3] was “binds”.

B4: Telomeric Repeat binding Factor 2 (TRF2), human, full-length recombinant with N-terminal His6-tag, Q15554 1-542 (protein)
chain: MAAGAGTAGPASGPGVVRDPAASQPRKRPGREGGEGARRSDTMAGGGGSSDGSGRAAGRRASRSSGRARRGRHEPGLGGPAERGAGEARLEEAVNRWVLKFYFHEALRAFRGSRYGDFRQIRDIMQALLVRPLGKEHTVSRLLRVMQCLSRIEEGENLDCSFDMEAELTPLESAINVLEMIKTEFTLTEAVVESSRKLVKEAAVIICIKNKEFEKASKILKKHMSKDPTTQKLRNDLLNIIREKNLAHPVIQNFSYETFQQKMLRFLESHLDDAEPYLLTMAKKALKSESAASSTGKEDKQPAPGPVEKPPREPARQLRNPPTTIGMMTLKAAFKTLSGAQDSEAAFAKLDQKDLVLPTQALPASPALKNKRPRKDENESSAPADGEGGSELQPKNKRMTISRLVLEEDSQSTEPSAGLNSSQEAASAPPSKPTVLNQPLPGEKNPKVPKGKWNSSNGVEEKETWVEEDELFQVQAAPDEDSTTNITKKQKWTVEESEWVKAGVQKYGEGNWAAISKNYPFVNRTAVMIKDRWRTMKRLGMN
With B4 the binding [4] was “binds”.

B5: TRF2 produced in insect cells, Q15554 1-542 (protein)
chain: MAAGAGTAGPASGPGVVRDPAASQPRKRPGREGGEGARRSDTMAGGGGSSDGSGRAAGRRASRSSGRARRGRHEPGLGGPAERGAGEARLEEAVNRWVLKFYFHEALRAFRGSRYGDFRQIRDIMQALLVRPLGKEHTVSRLLRVMQCLSRIEEGENLDCSFDMEAELTPLESAINVLEMIKTEFTLTEAVVESSRKLVKEAAVIICIKNKEFEKASKILKKHMSKDPTTQKLRNDLLNIIREKNLAHPVIQNFSYETFQQKMLRFLESHLDDAEPYLLTMAKKALKSESAASSTGKEDKQPAPGPVEKPPREPARQLRNPPTTIGMMTLKAAFKTLSGAQDSEAAFAKLDQKDLVLPTQALPASPALKNKRPRKDENESSAPADGEGGSELQPKNKRMTISRLVLEEDSQSTEPSAGLNSSQEAASAPPSKPTVLNQPLPGEKNPKVPKGKWNSSNGVEEKETWVEEDELFQVQAAPDEDSTTNITKKQKWTVEESEWVKAGVQKYGEGNWAAISKNYPFVNRTAVMIKDRWRTMKRLGMN
B5 was tested, and the binding [5] was “binds”.
